Results published in PubChem BioAssay AID1487 (National Center for Advancing Translational Sciences (NCATS), 2009).
The list shows a part of the results. Shown are side measurements of this screen, not its main read-out; they come without a call. The list favours compounds with an active or inconclusive main result. Potencies come from curve fits of mixed quality, noted in brackets.

Experiment: qHTS Assay for Modulators of Lamin A Splicing
Conditions: HeLa LMNA splicing GFP/RFP minigene ratio, 48 h
Outline: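 S3 HeLa cells stably expressing lamin A-EGFP splicing minigene plus DsRed2, 600 cells/well, 48 h compound exposure at 37C. Laser-scanning cytometry; analysed as GFP (500-530 nm)/RFP (575-640 nm) total intensity ratio; 0.5% DMSO vehicle.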

[1] = measured here: RFP viability control channel
[2] = measured here: GFP splicing reporter channel

SMILES | AC50 [1] | AC50 [2]
CCN(CC)c1ccc(/C=C(\C#N)C(=O)c2ccc(Br)cc2)cc1 | 15.8 µM [rising, single point] | 
Cc1cccc(C(=O)NC2CC3CCCC(C2)N3S(=O)(=O)c2ccccc2)c1 (stereo unspecified) | 20 µM [rising, single point] | 
Cc1ccc([N+](=O)[O-])cc1N=Cc1ccc(Br)s1 | 0.282 µM [rising, partial curve, poor fit] | 0.158 µM [rising, full curve, poor fit]
C1CCC(C(C[C@@H]2CCCCN2)C2CCCCC2)CC1 | 11.2 µM [falling, single point] | 14.1 µM [falling, partial curve, poor fit]
Oc1cc2ccccc2cc1-c1n[nH]c(=S)n1Cc1ccco1 |  | 6.31 µM [rising, partial curve, poor fit]
Cc1cccc2sc(N(Cc3cccnc3)C(=O)CCOc3ccccc3)nc12 | 28.2 µM [falling, single point] | 17.8 µM [falling, partial curve, poor fit]
COc1ccc(S(=O)(=O)N(CC(=O)N/N=C/c2cccs2)c2cc(C)cc(C)c2)cc1OC | 11.2 µM [rising, partial curve] | 
CCOC(=O)c1ccc(N2CCN(c3ccccc3OC)CC2)c(NC(=O)Nc2ccc(CC)cc2)c1 |  | 0.1 µM [rising, full curve, poor fit]
CCOC(=O)c1c(C)noc1-c1ccco1 |  | 35.5 µM [rising, single point]
O=C1CSC(c2ccc(F)cc2)N1c1nc2ccccc2s1 (stereo unspecified) | 12.6 µM [rising, single point] | 11.2 µM [rising, single point]
CC(C)Cn1c(N)c(C(=O)CSc2ccccc2)c(=O)n(C)c1=O | 10 µM [rising, partial curve] | 2 µM [rising, partial curve, poor fit]
Cc1c2c(n3c(nc4ccccc43)c1C#N)N(CCN(C)C)CC2 |  | 10 µM [falling, partial curve, poor fit]
CC12CCC(C(=O)N3CCc4ccccc43)(CC1=O)C2(C)C (stereo unspecified) |  | 2.51 µM [falling, partial curve, poor fit]
CCOC(=O)c1c(NC(=O)CSc2n[nH]c(N)n2)sc(CC)c1C | 14.1 µM [rising, single point] | 17.8 µM [rising, partial curve, poor fit]
C/C(=N\NC(=O)c1c(Cl)cnn1C)c1cccc(NC(=O)COc2ccccc2)c1 | 11.2 µM [rising, partial curve, poor fit] | 

Rewritten as tab-separated lines: two of the compounds above.
SMILES	AC50 [1]	AC50 [2]
Cc1c2c(n3c(nc4ccccc43)c1C#N)N(CCN(C)C)CC2		10 µM [falling, partial curve, poor fit]
CC12CCC(C(=O)N3CCc4ccccc43)(CC1=O)C2(C)C (stereo unspecified)		2.51 µM [falling, partial curve, poor fit]
